PubChem BioAssay AID1159584 | Peter MacCallum Cancer Centre | 2016

Screen: 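Genes that CDH1-null MCF10A cells selectively depend on to survive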 (primary screen)
System: human MCF10A breast epithelial cells, parental and CDH1-null
Knock-down reagent: siRNA against human genes
Measurement: 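ATP luminescence (CellTiter-Glo) viability per line relative to mean mock wells over all plates, and the ratio of CDH1-null to parental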
Reading the numbers: CDH1-null / parental viability ratio: higher = CDH1-null cells survive relatively better than parental; CDH1-null viability vs mock: higher = more viable CDH1-null cells
Units: CDH1-null viability vs mock in fraction of mock
Shown is an unselected part of about 18,000 reagents tested. The numbers tell different reagents against one gene apart. Further read-outs or replicates are left out here. No sequences are given here. Not stated in the record: the amount of reagent, the time to read-out.

CLCN2 (GeneID 1181) — CDH1-null / parental viability ratio = 1.18; CDH1-null viability vs mock = 1.2
CHIC1 (GeneID 53344) — CDH1-null / parental viability ratio = 1.16; CDH1-null viability vs mock = 1.02
MAPDA (GeneID 161823) — CDH1-null / parental viability ratio = 0.9; CDH1-null viability vs mock = 1.04
CYP46A1 (GeneID 10858) — CDH1-null / parental viability ratio = 0.99; CDH1-null viability vs mock = 0.68
TRIM22 (GeneID 10346) — CDH1-null / parental viability ratio = 1; CDH1-null viability vs mock = 0.96
CT45A3 (GeneID 441519) #1 — CDH1-null / parental viability ratio = 1.28; CDH1-null viability vs mock = 0.97
CT45A3 (GeneID 441519) #2 — CDH1-null / parental viability ratio = 1.21; CDH1-null viability vs mock = 0.87
UNC50 (GeneID 25972) — CDH1-null / parental viability ratio = 0.94; CDH1-null viability vs mock = 0.84
TXNIP (GeneID 10628) — CDH1-null / parental viability ratio = 0.97; CDH1-null viability vs mock = 0.72
RBBP5 (GeneID 5929) — CDH1-null / parental viability ratio = 0.92; CDH1-null viability vs mock = 0.72
PCDHGB2 (GeneID 56103) — CDH1-null / parental viability ratio = 1.33; CDH1-null viability vs mock = 0.93
NAALADL2 (GeneID 254827) — CDH1-null / parental viability ratio = 1.07; CDH1-null viability vs mock = 0.92
UBE2E3 (GeneID 10477) — CDH1-null / parental viability ratio = 0.95; CDH1-null viability vs mock = 0.76
DDB2 (GeneID 1643) — CDH1-null / parental viability ratio = 1.16; CDH1-null viability vs mock = 1.02
VAT1 (GeneID 10493) — CDH1-null / parental viability ratio = 0.92; CDH1-null viability vs mock = 0.68
ALKBH7 (GeneID 84266) — CDH1-null / parental viability ratio = 1.35; CDH1-null viability vs mock = 0.42
OR2H1 (GeneID 26716) — CDH1-null / parental viability ratio = 1.16; CDH1-null viability vs mock = 0.52
DLGAP2 (GeneID 9228) — CDH1-null / parental viability ratio = 0.95; CDH1-null viability vs mock = 0.84
TACSTD2 (GeneID 4070) — CDH1-null / parental viability ratio = 0.89; CDH1-null viability vs mock = 0.7
CNDP1 (GeneID 84735) — CDH1-null / parental viability ratio = 1.14; CDH1-null viability vs mock = 0.66
ERMARD (GeneID 55780) — CDH1-null / parental viability ratio = 1; CDH1-null viability vs mock = 1.02
TRIM16L (GeneID 147166) — CDH1-null / parental viability ratio = 1.16; CDH1-null viability vs mock = 1.03
TMEM229B (GeneID 161145) — CDH1-null / parental viability ratio = 0.9; CDH1-null viability vs mock = 0.73
METTL5 (GeneID 29081) — CDH1-null / parental viability ratio = 1.11; CDH1-null viability vs mock = 0.84
NSRP1 (GeneID 84081) — CDH1-null / parental viability ratio = 1.29; CDH1-null viability vs mock = 0.58
NDUFAF6 (GeneID 137682) — CDH1-null / parental viability ratio = 0.95; CDH1-null viability vs mock = 1.05
ACBD5 (GeneID 91452) — CDH1-null / parental viability ratio = 1.46; CDH1-null viability vs mock = 0.67
PSORS1C2 (GeneID 170680) — CDH1-null / parental viability ratio = 1.2; CDH1-null viability vs mock = 0.42
OR5H15 (GeneID 403274) — CDH1-null / parental viability ratio = 0.91; CDH1-null viability vs mock = 1.02
S1PR1 (GeneID 1901) — CDH1-null / parental viability ratio = 1.3; CDH1-null viability vs mock = 0.83
PXT1 (GeneID 222659) — CDH1-null / parental viability ratio = 0.96; CDH1-null viability vs mock = 0.8
RPAP1 (GeneID 26015) — CDH1-null / parental viability ratio = 1.17; CDH1-null viability vs mock = 0.7
SLC37A3 (GeneID 84255) — CDH1-null / parental viability ratio = 0.99; CDH1-null viability vs mock = 0.93
SLC4A1AP (GeneID 22950) — CDH1-null / parental viability ratio = 1.17; CDH1-null viability vs mock = 1.15
ICOSLG (GeneID 23308) — CDH1-null / parental viability ratio = 0.91; CDH1-null viability vs mock = 0.6
